# Reference: the supplement of paper PMC12067093, “Discovery and optimisation of a covalent ligand for TRIM25 and its application to targeted protein ubiquitination” (Chemical Science, 2025)
# The chains behind the UniProt entries cited, without tags or fusion partners. Where a name states a change or a piece, a line headed by the entry shows the natural chain unless it says otherwise.
# UniProt Q8N584: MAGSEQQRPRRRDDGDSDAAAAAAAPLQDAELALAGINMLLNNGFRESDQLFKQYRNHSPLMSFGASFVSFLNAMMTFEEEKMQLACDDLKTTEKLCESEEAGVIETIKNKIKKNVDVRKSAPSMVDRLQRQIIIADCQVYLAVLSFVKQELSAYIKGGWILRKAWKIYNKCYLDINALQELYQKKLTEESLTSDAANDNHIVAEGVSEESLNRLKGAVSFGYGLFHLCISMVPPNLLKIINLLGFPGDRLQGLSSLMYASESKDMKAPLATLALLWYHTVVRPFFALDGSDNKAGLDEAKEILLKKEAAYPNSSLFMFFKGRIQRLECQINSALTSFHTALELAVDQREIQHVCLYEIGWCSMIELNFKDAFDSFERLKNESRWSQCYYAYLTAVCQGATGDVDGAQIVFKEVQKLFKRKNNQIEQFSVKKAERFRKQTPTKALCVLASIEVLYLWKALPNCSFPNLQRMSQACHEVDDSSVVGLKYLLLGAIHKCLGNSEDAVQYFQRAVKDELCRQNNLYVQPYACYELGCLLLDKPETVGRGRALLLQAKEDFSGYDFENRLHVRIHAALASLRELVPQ
# UniProt Q96N46: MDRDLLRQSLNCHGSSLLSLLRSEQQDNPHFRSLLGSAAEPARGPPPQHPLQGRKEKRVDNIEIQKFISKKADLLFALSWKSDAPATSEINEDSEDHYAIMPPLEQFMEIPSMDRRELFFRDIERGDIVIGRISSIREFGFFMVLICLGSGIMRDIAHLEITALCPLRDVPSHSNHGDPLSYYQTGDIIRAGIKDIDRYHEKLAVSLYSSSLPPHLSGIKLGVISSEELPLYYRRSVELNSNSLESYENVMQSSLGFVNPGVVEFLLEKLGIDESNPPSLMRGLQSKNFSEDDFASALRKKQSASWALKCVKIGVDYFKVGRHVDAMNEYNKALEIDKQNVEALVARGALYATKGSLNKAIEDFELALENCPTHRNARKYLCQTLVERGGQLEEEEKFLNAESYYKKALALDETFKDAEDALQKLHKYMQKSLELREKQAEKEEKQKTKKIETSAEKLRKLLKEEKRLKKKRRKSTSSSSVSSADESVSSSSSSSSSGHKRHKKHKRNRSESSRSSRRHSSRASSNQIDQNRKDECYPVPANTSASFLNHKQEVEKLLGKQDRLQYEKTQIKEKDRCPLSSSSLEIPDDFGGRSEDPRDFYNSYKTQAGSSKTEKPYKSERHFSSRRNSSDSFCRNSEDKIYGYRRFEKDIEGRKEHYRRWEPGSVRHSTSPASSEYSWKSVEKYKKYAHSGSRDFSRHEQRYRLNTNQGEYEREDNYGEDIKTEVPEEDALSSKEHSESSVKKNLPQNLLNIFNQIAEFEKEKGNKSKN
# UniProt Q9BRA2: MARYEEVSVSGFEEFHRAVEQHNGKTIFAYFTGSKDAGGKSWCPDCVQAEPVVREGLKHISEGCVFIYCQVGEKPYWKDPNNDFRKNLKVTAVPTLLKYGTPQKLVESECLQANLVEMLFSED
# UniProt Q9UGJ1, whole entry, looked up: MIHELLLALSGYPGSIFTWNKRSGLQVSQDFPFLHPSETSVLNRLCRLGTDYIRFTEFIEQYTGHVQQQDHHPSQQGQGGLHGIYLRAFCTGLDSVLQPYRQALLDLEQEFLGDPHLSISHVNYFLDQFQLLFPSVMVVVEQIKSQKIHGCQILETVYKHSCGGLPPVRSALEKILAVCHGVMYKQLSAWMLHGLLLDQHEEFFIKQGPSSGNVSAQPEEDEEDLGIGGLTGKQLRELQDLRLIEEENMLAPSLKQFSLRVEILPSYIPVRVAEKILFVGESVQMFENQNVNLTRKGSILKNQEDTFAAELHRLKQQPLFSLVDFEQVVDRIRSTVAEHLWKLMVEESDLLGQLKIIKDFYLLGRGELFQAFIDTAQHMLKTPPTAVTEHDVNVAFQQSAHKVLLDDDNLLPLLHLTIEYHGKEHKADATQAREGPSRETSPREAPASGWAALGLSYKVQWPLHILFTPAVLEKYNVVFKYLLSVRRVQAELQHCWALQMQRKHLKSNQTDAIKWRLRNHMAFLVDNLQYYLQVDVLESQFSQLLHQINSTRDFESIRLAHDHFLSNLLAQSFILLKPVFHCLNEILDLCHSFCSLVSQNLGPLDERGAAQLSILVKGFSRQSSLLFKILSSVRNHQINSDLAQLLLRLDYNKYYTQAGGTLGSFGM
# UniProt Q5R3I4: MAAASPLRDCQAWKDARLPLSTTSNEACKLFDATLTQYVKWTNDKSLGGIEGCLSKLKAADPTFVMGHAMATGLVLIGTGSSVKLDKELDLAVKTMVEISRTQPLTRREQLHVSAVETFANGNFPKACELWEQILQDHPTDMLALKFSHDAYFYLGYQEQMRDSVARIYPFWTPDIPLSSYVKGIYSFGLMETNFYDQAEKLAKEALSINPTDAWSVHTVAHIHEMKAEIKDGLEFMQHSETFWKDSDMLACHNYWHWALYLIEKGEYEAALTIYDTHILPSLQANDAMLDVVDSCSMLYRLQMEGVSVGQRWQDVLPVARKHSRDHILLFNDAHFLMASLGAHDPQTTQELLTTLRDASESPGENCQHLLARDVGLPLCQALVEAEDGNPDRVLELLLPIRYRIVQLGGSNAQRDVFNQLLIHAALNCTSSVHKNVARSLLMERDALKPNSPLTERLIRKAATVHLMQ
# UniProt Q96CW5, whole entry, looked up: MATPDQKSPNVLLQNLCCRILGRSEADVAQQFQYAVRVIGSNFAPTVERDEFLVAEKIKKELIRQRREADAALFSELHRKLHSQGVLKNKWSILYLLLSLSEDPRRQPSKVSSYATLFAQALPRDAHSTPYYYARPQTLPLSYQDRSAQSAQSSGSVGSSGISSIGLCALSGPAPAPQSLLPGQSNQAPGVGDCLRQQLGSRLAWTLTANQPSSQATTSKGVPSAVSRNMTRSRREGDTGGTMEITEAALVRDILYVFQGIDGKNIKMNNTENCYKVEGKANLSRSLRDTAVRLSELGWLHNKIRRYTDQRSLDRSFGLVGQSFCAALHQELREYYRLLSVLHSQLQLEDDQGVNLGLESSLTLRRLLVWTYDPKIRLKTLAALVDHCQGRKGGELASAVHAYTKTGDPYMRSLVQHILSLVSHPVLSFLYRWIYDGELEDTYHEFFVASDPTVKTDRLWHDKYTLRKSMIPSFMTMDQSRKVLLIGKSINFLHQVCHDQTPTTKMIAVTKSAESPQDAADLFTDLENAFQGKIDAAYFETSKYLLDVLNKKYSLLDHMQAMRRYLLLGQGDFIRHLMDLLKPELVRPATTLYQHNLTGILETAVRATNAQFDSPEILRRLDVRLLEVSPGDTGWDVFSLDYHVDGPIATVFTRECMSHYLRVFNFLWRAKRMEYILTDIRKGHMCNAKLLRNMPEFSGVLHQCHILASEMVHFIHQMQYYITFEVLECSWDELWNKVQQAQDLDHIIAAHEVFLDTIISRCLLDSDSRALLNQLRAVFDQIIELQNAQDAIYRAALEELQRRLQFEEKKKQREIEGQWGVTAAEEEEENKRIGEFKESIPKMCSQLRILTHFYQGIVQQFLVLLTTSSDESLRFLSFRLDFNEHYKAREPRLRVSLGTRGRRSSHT
# UniProt Q96QT4: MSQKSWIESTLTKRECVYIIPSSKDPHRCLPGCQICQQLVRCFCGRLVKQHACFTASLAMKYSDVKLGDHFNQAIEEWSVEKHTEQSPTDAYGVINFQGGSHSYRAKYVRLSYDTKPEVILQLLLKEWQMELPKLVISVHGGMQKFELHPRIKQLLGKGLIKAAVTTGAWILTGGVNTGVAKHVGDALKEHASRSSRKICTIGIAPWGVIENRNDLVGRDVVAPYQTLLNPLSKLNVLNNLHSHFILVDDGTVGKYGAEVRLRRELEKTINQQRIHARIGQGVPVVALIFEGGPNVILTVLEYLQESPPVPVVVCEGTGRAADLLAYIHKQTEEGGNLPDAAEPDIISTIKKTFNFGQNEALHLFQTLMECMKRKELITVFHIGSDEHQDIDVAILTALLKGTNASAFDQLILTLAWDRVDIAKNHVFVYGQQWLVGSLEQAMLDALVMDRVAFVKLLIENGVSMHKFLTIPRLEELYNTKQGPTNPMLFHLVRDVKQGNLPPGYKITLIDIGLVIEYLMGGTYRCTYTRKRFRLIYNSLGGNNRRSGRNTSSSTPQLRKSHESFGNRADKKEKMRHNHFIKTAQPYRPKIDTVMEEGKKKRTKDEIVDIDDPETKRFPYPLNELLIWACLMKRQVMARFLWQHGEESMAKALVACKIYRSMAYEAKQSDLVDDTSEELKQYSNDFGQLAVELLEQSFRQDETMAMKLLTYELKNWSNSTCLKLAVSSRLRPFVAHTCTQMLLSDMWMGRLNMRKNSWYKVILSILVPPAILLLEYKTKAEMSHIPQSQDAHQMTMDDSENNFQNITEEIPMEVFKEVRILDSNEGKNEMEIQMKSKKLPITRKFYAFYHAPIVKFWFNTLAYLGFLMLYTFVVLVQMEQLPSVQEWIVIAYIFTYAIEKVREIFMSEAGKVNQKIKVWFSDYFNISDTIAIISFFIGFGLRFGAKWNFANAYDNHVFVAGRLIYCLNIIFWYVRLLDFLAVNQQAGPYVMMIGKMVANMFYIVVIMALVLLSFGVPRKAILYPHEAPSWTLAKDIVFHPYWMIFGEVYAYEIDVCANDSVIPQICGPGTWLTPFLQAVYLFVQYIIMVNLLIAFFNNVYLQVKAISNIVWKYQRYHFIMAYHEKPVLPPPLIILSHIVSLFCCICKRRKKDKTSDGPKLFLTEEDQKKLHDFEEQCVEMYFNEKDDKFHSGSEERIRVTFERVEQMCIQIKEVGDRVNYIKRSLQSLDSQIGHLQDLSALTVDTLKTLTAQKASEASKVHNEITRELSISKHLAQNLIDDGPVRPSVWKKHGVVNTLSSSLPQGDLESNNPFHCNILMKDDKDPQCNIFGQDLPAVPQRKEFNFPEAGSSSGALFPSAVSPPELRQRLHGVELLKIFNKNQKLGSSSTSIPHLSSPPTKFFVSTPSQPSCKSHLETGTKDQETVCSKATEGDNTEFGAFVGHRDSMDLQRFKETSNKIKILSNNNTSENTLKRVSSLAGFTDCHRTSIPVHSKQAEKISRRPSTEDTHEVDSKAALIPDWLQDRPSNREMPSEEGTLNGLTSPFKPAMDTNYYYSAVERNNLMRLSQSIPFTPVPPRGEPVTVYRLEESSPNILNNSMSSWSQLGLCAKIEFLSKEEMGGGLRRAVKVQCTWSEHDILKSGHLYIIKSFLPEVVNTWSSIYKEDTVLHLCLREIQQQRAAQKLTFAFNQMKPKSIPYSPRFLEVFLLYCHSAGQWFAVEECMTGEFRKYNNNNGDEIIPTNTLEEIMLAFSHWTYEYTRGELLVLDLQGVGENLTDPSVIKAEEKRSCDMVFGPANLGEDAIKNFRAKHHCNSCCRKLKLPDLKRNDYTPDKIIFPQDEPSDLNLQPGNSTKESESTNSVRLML
# UniProt Q9UNY4: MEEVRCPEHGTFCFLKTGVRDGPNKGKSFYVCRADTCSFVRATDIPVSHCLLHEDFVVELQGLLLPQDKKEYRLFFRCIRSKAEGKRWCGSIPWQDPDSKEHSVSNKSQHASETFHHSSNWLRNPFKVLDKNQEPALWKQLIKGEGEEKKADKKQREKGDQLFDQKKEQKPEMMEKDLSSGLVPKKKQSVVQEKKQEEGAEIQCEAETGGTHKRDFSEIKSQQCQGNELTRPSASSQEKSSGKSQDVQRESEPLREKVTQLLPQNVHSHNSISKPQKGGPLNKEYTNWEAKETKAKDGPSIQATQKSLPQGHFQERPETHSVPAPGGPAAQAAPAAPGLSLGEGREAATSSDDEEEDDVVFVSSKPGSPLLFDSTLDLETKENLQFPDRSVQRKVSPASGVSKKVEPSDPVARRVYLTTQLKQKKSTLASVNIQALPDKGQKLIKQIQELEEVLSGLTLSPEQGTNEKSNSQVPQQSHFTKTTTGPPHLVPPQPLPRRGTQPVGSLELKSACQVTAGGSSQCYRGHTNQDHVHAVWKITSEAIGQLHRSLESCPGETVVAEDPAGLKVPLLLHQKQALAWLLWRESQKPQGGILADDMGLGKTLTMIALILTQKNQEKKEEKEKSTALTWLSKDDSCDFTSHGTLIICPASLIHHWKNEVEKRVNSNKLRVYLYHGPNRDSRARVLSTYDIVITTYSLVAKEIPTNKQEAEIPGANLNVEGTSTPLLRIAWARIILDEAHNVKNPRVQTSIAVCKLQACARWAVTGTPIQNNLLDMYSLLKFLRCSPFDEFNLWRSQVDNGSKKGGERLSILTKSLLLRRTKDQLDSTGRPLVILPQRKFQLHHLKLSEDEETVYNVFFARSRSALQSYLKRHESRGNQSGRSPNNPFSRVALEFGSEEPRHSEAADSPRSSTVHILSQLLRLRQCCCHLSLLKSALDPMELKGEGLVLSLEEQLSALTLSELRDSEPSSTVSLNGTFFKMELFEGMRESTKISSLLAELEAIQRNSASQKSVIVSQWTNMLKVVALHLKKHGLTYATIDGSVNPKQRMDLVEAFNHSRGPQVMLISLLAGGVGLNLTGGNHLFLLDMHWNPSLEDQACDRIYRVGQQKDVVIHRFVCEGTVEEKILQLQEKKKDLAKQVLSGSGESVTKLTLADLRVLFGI
# The list shows a part of the results.
# Compound: Cc1cc(ccc1-c1ccccc1)C(=O)N1CCCN(CC1)C(=O)CCl [compound 10]
# Assay: probe-labelled cysteine peptide fold change vs DMSO (competition) (log2 fold change); higher = less target engagement (more negative = stronger competition)
# Details: THP-1, incubation time: 4 h
# 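Also: competitive profiling in live THP-1 cells: cysteine peptides tagged with an iodoacetamide desthiobiotin (IA-DTB) probe, intensity after compound treatment relative to DMSO-treated cells.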
Target,probe-labelled cysteine peptide fold change (10 µM),probe-labelled cysteine peptide fold change (50 µM)
TRMT6_Q9UJA5_243_AATACFGFPK (UniProt Q9UJA5),-0.0351,-0.16
TTC39C_Q8N584_475_MSQACHEVDDSSVVGLK (UniProt Q8N584),-0.0327,-0.0908
TUBGCP2_Q9BSJ2_848_LSIYSTSDCEHGMASVISR (UniProt Q9BSJ2),-0.0533,-0.128
TTC1_Q99614_28_VTDTQEAECAGPPVPDPK (UniProt Q99614),-0.117,-0.167
TXNDC11_Q6PKC3_568_KCEVDAPSSVPHIEENR (UniProt Q6PKC3),-0.231,-0.332
TTC14_Q96N46_371_AIEDFELALENCPTHR (UniProt Q96N46),0.0868,0.0442
TTC37_Q6PGP7_352_NLCLHLK (UniProt Q6PGP7),0.0369,-0.111
TUBB6_Q9BUF5_12_MREIVHIQAGQCGNQIGTK (UniProt Q9BUF5),-0.101,-0.321
TUT7_Q5VYS8_1008_FLNILDQVCIQCYK (UniProt Q5VYS8),0.124,-0.158
TSC2_P49815_1755_ICEEAAYSNPSLPLVHPPSHSK (UniProt P49815),-0.402,-0.562
TTC4_O95801_174_HFAEAVNWCDEGLQIDAK (UniProt O95801),0.192,-0.125
TXNDC17_Q9BRA2_46_SWCPDCVQAEPVVR (UniProt Q9BRA2),-0.0603,-0.228
TRPV2_Q9Y5S1_134_DGVNACILPLLQIDR (UniProt Q9Y5S1),-0.0797,0.168
TTC21B_Q7Z4L5_937_LYLAQDDPDSCLR (UniProt Q7Z4L5),-0.0676,-0.421
TUBB6_Q9BUF5_127+129_KECEHCDCLQGFQLTHSLGGGTGSGMGTLLISK (UniProt Q9BUF5),-0.297,-0.728
TSC2_P49815_519_LATQLLVDLAEGCHTHHFNSLLDIIEK (UniProt P49815),0.241,-0.119
TUBGCP4_Q9UGJ1_151_IHGCQILETVYK (UniProt Q9UGJ1),-0.134,-0.018
TUT4_Q5TAX3_833_ELSQCNCIDLSK (UniProt Q5TAX3),-0.143,-0.371

Target,probe-labelled cysteine peptide fold change (10 µM),probe-labelled cysteine peptide fold change (50 µM)
TTC14_Q96N46_165_DIAHLEITALCPLR (UniProt Q96N46),0.0492,0.0822
TSFM_P43897_64_TGYSFVNCK (UniProt P43897),0.0248,-0.153
TTC38_Q5R3I4_429_DVFNQLLIHAALNCTSSVHK (UniProt Q5R3I4),-0.0993,-0.394
TRPM2_O94759_693_AIGVFTECYR (UniProt O94759),0.122,0.144
TUBGCP3_Q96CW5_325_SFGLVGQSFCAALHQELR (UniProt Q96CW5),-0.0124,0.0533
TRPM7_Q96QT4_53_QHACFTASLAMK (UniProt Q96QT4),-0.0253,-0.686
TRPM7_Q96QT4_1426_DQETVCSK (UniProt Q96QT4),-0.298,-0.32
TUBB6_Q9BUF5_12_EIVHIQAGQCGNQIGTK (UniProt Q9BUF5),-0.186,-0.288
TXN2_Q99757_93_VVNSETPVVVDFHAQWCGPCK (UniProt Q99757),-1.34,-1.7
TST_Q16762_64_HVPGASFFDIEECRDTASPYEMMLPSEAGFAEYVGR (UniProt Q16762),-0.142,-0.425
TSEN2_Q8NCE0_439_EMESPECMK (UniProt Q8NCE0),0.0949,0.0481
TUBGCP6_Q96RT7_1601_YLPEVFAPNAPDVLSCLELR (UniProt Q96RT7),0.218,0.313
TUBGCP4_Q9UGJ1_162_HSCGGLPPVR (UniProt Q9UGJ1),0.21,0.0244
TTF2_Q9UNY4_50_ATDIPVSHCLLHEDFVVELQGLLLPQDKK (UniProt Q9UNY4),0.136,-0.0113
TUBGCP3_Q96CW5_388_TLAALVDHCQGR (UniProt Q96CW5),0.087,0.12
TRRAP_Q9Y4A5_1879_ACVDPACK (UniProt Q9Y4A5),-0.0235,0.0187
TTF2_Q9UNY4_37_ADTCSFVR (UniProt Q9UNY4),0.205,-0.217
TTC39C_Q8N584_87_MQLACDDLK (UniProt Q8N584),-0.289,-0.0251

# Single entries from above:
# probe-labelled cysteine peptide fold change (10 µM), TTC38_Q5R3I4_429_DVFNQLLIHAALNCTSSVHK (UniProt Q5R3I4) is entered as -0.0993
# probe-labelled cysteine peptide fold change (10 µM), TUBGCP4_Q9UGJ1_162_HSCGGLPPVR (UniProt Q9UGJ1) is entered as 0.21
